Data reported in publication PMC5996148.
This is one part of the list. For some assays here: The exact form of the protein is not confirmed.

Legend:
Experiment in all cases: protein microarray (ProtoArray v5.0), streptavidin-Alexa Fluor 647
Settings in all cases: 3'-biotin; 20 mM Tris (pH 7.5), 5 mM MgCl2, 100 mM KCl, 0.1% Tween-20, A/T-rich and random oligonucleotide blockers; temperature not stated; high values mean tight binding
[1] = system: RING finger and WD repeat domain-containing protein 3 (human)
[2] = system: RING finger protein 122 (human)
RIT1 = RIT1 (UniProt Q92963)
RIT2 = biological target: T1, RIT2 (UniProt Q99578)
T1 sequence: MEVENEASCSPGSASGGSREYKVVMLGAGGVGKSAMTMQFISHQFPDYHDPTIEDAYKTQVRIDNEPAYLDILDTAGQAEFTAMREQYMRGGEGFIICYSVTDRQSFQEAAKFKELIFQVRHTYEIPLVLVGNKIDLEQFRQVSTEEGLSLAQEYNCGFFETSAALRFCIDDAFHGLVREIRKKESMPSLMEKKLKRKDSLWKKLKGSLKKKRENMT

RLBP1 (human) = system: RLBP1 (human)
RLBP1L1 (human) = system: RLBP1L1 (human)
RNASE8 (human) = system: RNASE8 (human)
RNF11 (human) = system: RNF11 (human)
RNF111 (human) = system: RNF111 (human)
RNF141 (human) = system: RNF141 (human)
ROM1 (human) = system: ROM1 (human)
RP11-49G10.8 (human) = system: RP11-49G10.8 (human)
RPA2 (human) = system: RPA2 (human)
RPL35 = RPL35 (UniProt P42766)
RPLP2 (human) = system: RPLP2 (human)
RPS20 = RPS20 (UniProt P60866)
RRN3 (human) = system: RRN3 (human)
RSBN1L = RSBN1L (UniProt Q6PCB5)
RTN1 = biological target: T2, RTN1 (UniProt Q16799)
T2 sequence: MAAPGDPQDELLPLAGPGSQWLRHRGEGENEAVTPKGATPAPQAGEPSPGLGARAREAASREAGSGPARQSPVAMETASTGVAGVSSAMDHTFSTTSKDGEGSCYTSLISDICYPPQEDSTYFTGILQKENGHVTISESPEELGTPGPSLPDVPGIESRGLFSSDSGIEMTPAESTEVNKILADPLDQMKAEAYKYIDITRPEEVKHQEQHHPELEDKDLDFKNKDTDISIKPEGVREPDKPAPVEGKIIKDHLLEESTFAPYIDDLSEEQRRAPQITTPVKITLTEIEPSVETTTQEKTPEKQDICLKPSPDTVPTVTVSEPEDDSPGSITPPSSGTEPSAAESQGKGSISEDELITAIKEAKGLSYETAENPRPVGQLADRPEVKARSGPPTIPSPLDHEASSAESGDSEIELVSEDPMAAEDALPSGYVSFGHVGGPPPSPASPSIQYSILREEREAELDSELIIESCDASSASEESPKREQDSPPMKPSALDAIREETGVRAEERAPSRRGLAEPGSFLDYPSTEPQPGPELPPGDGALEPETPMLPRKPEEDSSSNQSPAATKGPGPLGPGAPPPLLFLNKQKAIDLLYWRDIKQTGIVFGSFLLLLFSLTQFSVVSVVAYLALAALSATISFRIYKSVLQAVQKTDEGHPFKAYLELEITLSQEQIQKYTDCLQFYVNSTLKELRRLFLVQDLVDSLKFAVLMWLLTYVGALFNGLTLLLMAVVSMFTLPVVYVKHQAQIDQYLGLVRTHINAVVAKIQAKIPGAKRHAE

RTN4 (human) = system: RTN4 (human)

GGGGACAGGGGTATGGGGAGGGG [G4-3 biotinylated (CtG)]
binding signal [1]: -0.284 z-score
binding signal [2]: -0.335 z-score
binding signal (RIT1): 6.28 z-score
binding signal (RIT2): 5.52 z-score
binding signal (RLBP1 (human)): -0.329 z-score
binding signal (RLBP1L1 (human)): -0.329 z-score
binding signal (RNASE8 (human)): -0.326 z-score
binding signal (RNF11 (human)): -0.334 z-score
binding signal (RNF111 (human)): -0.324 z-score
binding signal (RNF141 (human)): -0.344 z-score
binding signal (ROM1 (human)): -0.299 z-score
binding signal (RP11-49G10.8 (human)): -0.324 z-score
binding signal (RPA2 (human)): -0.328 z-score
binding signal (RPL35): 3.25 z-score
binding signal (RPLP2 (human)): -0.338 z-score
binding signal (RPS20): 3.31 z-score
binding signal (RRN3 (human)): -0.323 z-score
binding signal (RSBN1L): 4.53 z-score
binding signal (RTN1): -0.321 z-score
binding signal (RTN4 (human)): -0.318 z-score
